{"sequences": {"note": "Protein sequences, listed by entry. Tags and fused reporters are not part of them. Residues count along the entry.", "UniProt P01137, 279-390": "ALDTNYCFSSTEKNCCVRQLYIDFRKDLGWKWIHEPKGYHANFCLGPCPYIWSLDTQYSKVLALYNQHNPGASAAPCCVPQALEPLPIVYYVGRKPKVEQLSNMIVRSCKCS"}, "source": "paper PMC8139589", "target": "TGF-beta1 (human) (UniProt P01137)", "assay": "electrochemical aptasensor (SWV)", "settings": "serum, 0-150 pg/ml; phosphorothioate at positions marked *; 3' internal spacer C3; Serum as wound-exudate mimic; about 30 min incubation to equilibrium; aptamers immobilized at 10 uM in TE buffer, MCH passivation; commercial protein; label: 5' methylene blue, 3' C3 thiol; folded or branched DNA", "note": "The exact form of at least one protein or probe is not confirmed.", "data": [{"sequence": "CGCTCGGCTTCACGAGATTCGTGTCGTTGTGTCCTGTACCCGCCTTGACCAGTCACTCTAGAGCATCCGGACTG [TGF-beta1 aptamer]", "values": [{"measurement": "binding result", "result": "binds"}]}]}
